The source of these data is the supplement of paper PMC10849652.

Amino acid sequences for entries named in this document (tags omitted). A change or cut given only in a name is not applied to a line headed by its entry.
UniProt Q3T906: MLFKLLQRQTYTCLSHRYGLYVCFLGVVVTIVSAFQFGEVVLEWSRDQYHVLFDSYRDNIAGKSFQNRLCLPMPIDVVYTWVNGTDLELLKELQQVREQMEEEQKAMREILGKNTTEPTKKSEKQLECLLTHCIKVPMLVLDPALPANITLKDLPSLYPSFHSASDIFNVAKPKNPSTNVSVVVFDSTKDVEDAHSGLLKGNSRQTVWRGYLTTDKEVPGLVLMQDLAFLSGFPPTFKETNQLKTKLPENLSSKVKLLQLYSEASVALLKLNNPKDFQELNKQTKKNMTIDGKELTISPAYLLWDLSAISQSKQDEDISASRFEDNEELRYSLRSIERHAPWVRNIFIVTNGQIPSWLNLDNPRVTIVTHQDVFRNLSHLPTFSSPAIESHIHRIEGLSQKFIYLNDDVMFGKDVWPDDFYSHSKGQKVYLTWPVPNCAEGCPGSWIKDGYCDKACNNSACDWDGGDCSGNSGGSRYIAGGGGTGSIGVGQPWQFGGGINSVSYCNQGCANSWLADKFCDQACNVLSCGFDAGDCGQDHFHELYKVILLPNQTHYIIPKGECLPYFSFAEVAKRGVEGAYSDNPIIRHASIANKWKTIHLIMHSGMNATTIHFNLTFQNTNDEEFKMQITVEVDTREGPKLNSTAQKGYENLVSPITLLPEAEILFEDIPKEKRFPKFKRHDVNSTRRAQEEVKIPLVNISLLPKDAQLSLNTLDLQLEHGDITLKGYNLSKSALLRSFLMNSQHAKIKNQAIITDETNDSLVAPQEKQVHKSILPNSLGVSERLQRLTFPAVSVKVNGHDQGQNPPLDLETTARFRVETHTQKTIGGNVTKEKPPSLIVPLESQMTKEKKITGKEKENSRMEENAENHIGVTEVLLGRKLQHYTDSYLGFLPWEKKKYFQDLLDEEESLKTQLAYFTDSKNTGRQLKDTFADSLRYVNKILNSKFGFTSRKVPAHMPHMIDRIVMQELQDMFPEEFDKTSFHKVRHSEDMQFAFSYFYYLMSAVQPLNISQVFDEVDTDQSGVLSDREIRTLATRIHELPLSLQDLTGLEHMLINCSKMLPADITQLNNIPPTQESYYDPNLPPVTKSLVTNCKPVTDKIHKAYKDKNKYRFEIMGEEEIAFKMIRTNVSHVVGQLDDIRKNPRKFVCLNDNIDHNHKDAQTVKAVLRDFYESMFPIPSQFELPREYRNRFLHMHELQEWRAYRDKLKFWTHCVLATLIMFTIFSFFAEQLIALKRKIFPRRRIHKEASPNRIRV
UniProt Q8N2G8: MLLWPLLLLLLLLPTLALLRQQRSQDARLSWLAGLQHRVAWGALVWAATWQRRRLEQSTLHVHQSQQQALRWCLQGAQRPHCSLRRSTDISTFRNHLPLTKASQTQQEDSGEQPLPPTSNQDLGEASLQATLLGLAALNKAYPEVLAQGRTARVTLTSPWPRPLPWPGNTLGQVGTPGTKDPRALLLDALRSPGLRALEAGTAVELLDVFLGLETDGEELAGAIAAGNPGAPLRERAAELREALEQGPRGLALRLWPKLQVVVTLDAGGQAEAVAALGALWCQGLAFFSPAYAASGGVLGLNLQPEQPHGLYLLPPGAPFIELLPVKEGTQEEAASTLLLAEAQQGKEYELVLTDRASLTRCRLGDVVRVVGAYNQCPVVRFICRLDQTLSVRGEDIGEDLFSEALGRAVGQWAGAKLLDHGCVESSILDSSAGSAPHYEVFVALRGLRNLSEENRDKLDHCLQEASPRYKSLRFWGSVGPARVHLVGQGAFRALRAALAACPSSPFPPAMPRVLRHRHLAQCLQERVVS
UniProt Q92820: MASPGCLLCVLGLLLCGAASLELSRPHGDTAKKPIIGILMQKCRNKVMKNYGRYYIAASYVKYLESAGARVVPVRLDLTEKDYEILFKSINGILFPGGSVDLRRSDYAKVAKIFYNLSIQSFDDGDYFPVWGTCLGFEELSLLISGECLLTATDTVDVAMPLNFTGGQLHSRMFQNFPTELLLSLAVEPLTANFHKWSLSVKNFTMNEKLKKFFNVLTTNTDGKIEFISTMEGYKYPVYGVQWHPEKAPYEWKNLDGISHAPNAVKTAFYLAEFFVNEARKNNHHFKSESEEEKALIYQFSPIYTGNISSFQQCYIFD
UniProt O15228: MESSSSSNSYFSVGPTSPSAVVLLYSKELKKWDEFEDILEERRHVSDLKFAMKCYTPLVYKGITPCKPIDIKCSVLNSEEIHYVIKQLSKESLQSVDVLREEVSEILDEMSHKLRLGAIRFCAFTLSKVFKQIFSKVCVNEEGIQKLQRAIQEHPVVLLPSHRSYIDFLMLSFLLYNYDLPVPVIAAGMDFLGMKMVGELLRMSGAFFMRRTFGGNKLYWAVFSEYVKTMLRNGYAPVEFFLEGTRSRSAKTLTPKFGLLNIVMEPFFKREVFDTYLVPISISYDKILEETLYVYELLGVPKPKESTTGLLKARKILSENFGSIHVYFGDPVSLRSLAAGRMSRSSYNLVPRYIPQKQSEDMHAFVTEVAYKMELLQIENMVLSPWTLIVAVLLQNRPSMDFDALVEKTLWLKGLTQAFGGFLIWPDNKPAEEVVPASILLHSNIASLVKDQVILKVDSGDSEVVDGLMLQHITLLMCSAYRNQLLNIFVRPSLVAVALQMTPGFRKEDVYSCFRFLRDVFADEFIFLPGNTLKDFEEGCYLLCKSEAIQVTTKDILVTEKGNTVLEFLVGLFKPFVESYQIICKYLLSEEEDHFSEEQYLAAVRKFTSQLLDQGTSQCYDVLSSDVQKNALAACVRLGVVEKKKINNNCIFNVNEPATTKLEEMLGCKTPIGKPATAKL
UniProt Q9NZD2: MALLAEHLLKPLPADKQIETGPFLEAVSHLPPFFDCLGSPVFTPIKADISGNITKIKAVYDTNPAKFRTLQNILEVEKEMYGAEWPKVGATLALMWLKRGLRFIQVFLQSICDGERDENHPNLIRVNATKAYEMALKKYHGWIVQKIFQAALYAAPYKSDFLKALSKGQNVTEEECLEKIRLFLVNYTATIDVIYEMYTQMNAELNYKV
UniProt O94923: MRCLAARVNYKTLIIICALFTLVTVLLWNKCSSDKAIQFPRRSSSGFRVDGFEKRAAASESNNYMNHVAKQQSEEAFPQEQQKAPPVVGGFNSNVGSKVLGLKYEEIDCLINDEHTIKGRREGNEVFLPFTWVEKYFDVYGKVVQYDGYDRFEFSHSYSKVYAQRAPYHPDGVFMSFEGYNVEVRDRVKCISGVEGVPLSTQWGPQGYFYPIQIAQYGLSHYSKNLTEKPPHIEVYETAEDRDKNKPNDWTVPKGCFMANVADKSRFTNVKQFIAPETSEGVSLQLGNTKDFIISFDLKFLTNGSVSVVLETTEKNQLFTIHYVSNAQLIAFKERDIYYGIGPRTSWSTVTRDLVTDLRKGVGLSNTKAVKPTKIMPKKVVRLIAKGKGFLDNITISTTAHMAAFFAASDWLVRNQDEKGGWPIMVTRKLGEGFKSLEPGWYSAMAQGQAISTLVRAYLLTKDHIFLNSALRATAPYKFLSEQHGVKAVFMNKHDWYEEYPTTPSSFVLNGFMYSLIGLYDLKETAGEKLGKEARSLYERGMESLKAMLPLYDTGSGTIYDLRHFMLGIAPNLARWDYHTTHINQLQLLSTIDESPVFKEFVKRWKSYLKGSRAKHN
UniProt Q9H9Y4: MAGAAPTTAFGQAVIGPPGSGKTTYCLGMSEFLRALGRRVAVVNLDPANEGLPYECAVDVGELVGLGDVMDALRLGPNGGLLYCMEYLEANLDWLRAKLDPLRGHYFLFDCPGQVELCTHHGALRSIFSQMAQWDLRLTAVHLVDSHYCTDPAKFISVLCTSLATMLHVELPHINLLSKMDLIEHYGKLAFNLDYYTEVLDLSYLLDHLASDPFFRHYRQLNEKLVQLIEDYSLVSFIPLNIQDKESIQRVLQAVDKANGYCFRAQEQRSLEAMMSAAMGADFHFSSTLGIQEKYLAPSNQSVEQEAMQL
UniProt B7ZAQ6: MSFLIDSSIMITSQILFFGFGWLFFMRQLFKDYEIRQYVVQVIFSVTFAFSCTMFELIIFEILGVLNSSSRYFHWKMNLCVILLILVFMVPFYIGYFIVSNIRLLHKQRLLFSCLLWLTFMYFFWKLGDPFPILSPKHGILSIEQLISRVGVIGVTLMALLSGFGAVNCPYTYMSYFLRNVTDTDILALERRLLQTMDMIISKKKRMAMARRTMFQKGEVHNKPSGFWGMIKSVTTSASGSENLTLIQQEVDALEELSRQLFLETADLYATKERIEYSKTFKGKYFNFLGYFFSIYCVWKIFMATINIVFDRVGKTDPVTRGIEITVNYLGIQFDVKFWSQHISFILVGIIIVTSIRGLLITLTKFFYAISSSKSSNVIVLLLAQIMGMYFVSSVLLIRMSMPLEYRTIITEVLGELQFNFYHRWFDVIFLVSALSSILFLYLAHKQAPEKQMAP
UniProt Q9NWQ4: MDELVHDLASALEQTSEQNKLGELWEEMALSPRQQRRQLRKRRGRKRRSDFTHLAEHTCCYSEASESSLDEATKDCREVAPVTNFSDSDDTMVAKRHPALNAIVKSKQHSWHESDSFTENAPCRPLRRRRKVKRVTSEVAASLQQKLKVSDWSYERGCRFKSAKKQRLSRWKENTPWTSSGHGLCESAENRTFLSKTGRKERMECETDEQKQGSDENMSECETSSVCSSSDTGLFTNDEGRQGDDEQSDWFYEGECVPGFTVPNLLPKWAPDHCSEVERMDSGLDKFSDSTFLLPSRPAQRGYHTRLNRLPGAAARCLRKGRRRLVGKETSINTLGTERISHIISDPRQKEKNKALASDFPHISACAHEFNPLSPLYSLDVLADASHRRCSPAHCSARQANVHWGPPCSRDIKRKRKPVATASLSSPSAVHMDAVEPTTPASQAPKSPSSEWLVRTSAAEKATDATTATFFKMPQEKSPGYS
UniProt Q99795: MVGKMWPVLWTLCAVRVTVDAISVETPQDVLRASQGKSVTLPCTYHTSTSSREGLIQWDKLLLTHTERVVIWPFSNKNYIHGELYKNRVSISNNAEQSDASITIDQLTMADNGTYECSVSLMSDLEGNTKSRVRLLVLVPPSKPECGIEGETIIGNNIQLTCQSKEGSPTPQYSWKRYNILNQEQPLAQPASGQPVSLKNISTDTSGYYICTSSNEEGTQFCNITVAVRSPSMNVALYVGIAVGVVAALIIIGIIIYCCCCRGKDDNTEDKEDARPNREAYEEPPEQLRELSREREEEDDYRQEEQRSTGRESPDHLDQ
UniProt Q9UHW5, whole entry, looked up: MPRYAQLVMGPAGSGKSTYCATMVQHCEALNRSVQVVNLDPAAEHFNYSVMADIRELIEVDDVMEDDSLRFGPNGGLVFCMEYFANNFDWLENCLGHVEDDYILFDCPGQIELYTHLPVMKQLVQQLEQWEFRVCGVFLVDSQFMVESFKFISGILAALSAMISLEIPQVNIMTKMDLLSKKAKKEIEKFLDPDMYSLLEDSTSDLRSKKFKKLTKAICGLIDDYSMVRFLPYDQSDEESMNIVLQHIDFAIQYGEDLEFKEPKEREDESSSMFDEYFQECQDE
UniProt Q03113, whole entry, looked up: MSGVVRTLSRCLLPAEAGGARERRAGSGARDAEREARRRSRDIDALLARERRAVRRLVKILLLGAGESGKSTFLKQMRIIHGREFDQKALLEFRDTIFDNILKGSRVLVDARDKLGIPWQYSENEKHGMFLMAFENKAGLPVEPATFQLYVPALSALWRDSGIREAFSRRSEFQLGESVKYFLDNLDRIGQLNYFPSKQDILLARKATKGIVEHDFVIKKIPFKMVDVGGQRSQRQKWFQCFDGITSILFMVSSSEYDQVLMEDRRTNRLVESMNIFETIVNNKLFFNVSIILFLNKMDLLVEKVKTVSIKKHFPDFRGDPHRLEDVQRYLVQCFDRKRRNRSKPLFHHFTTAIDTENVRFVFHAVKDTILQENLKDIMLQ
UniProt P16278: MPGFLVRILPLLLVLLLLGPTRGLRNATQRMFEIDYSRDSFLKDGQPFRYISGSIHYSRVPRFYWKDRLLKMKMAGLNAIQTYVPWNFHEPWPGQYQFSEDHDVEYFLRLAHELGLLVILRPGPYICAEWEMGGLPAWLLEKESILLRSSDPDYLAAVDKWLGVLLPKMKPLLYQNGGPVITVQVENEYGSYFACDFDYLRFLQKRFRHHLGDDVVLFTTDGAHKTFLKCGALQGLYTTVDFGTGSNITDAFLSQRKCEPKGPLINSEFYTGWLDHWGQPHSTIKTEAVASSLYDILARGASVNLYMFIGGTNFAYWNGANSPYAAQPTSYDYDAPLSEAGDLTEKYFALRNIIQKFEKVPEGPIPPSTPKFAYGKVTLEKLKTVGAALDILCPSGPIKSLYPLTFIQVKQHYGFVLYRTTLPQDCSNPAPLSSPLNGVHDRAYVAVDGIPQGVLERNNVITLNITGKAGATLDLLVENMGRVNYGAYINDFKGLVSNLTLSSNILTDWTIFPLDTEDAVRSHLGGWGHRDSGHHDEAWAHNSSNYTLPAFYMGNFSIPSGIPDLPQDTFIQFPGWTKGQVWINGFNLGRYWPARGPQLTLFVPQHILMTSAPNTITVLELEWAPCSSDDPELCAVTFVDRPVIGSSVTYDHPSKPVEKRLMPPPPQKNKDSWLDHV
UniProt Q9UBI6: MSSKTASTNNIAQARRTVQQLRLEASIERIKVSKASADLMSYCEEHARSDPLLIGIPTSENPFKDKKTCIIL

The list shows a part of the results.

Compound in the first assay: C[C@H](Nc1ncnc2nc[nH]c12)c1cc2cccc(Cl)c2c(=O)n1-c1ccccc1 [duvelisib]
The experiment in a line: log2 fold change, soluble protein after heating vs DMSO (PISA); higher = thermal stabilisation; K562 lysate, 10 uM; active = over 0.2 and 3.5 SD of the protein, either way, in both replicates (recomputed). In a few lines: (§1)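 Following dounce homogenisation of K562 pellets in PBS pH 7.4 with 1 mM MgCl2, crude extract at 1 mg/mL protein was incubated for 30 min with 10 μM compound. Aliquots were then heated for 3 min over 48°C-58°C and pooled, NP-40 was added to 0.5% at 4°C, and soluble protein was recovered as the supernatant at 21,000xg for 90 min. Channel-sum-equalised TMTpro 16plex LC-MS/MS quantified this protein. Each value, from duplicates, is a log-two fold change in thermal stability relative to solvent controls.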
On to GLMP (UniProt Q8WWB7), for which the log2 fold change is inactive: -0.063.

Consider GNPTAB (UniProt Q3T906), for which the log2 fold change was inactive: -0.062.

Take GOLGA4 (UniProt Q13439): the log2 fold change is inactive: 0.001.

Turning to GHDC (UniProt Q8N2G8), the log2 fold change is inactive: -0.014.

For the target GGH (UniProt Q92820), the log2 fold change was inactive: 0.033.

As for GNPAT (UniProt O15228), the log2 fold change is inactive: -0.017.

For GPNMB (UniProt Q14956), the log2 fold change is inactive: -0.081.

GLS isoform 3 (UniProt O94925): the log2 fold change was inactive: -0.021.

In the case of GLTP (UniProt Q9NZD2), the log2 fold change is inactive: -0.069.

GLCE (UniProt O94923): the log2 fold change was inactive: 0.005.

On to GOLGB1 isoform 4 (UniProt Q14789), for which the log2 fold change is inactive: 0.084.

Regarding GPN2 (UniProt Q9H9Y4), the log2 fold change is inactive: 0.126.

For GPR89A (UniProt B7ZAQ6), the log2 fold change was inactive: -0.047.

Regarding GOLGA8R (UniProt I6L899), the log2 fold change is inactive: -0.085.

Consider GOSR1 (UniProt E9PCW1), for which the log2 fold change is inactive: 0.062.

For the target GPATCH2L (UniProt Q9NWQ4), the log2 fold change is inactive: 0.052.

Consider GPA33 (UniProt Q99795), for which the log2 fold change was inactive: 0.154.

On to GMPR (UniProt P36959), for which the log2 fold change was inactive: 0.034.

Regarding GORASP1 (UniProt Q9BQQ3), the log2 fold change was inactive: -0.018.

Regarding GPN3 isoform 2 (UniProt Q9UHW5), the log2 fold change is inactive: -0.072.

On to GPLD1 (UniProt P80108), for which the log2 fold change is inactive: -0.049.

As for GNA12 (UniProt Q03113), the log2 fold change was inactive: -0.016.

Regarding GLB1 (UniProt P16278), the log2 fold change was inactive: 0.004.

Compound in another assay: Cc1cc(Nc2cc(CN3CCOCC3)c3nc(C)c(Cc4ccc(Cl)cc4F)n3n2)n[nH]1 [gandotinib]
The description is as above. In a few lines: as §1
On to GNPTAB (UniProt Q3T906), for which the log2 fold change is inactive: 0.023.

Turning to GOLIM4 (UniProt F8W785), the log2 fold change was inactive: -0.035.

In the case of GHDC (UniProt Q8N2G8), the log2 fold change was inactive: 0.061.

GGH (UniProt Q92820): the log2 fold change is inactive: 0.17.

As for GNPAT (UniProt O15228), the log2 fold change was inactive: 0.107.

Take GNG12 (UniProt Q9UBI6): the log2 fold change was inactive: -0.024.

GPNMB (UniProt Q14956): the log2 fold change was inactive: 0.739.

For GLS isoform 3 (UniProt O94925), the log2 fold change is inactive: -0.015.

In the case of GLTP (UniProt Q9NZD2), the log2 fold change was inactive: -0.158.

For the target GLCE (UniProt O94923), the log2 fold change was inactive: 0.249.

For GINM1 (UniProt Q9NU53), the log2 fold change is inactive: 0.282.

As to GPRC5C isoform 2 (UniProt Q9NQ84), the log2 fold change was inactive: -0.132.

As for GPN2 (UniProt Q9H9Y4), the log2 fold change is inactive: 0.068.

On to GPR89A (UniProt B7ZAQ6), for which the log2 fold change is inactive: -0.285.

Turning to GOSR1 (UniProt E9PCW1), the log2 fold change is inactive: -0.011.

For GPA33 (UniProt Q99795), the log2 fold change was active: 0.567.

Take GMPR (UniProt P36959): the log2 fold change is inactive: -0.01.

In the case of GORASP1 (UniProt Q9BQQ3), the log2 fold change is inactive: 0.002.

GPN3 isoform 2 (UniProt Q9UHW5): the log2 fold change is inactive: 0.13.

Turning to GNAS isoform 3 (UniProt P63092), the log2 fold change is inactive: 0.023.

In the case of GLB1 (UniProt P16278), the log2 fold change is inactive: 0.012.

Take GNAI1 (UniProt P63096): the log2 fold change is inactive: 0.044.

Consider GPATCH3 (UniProt Q96I76), for which the log2 fold change was inactive: -0.088.

Compound in another assay: Cc1cc(Nc2cc(N3CCN(C)CC3)nc(Sc3ccc(NC(=O)C4CC4)cc3)n2)n[nH]1 [tozasertib]
The description is as above. The procedure, abridged:
as §1
With GLMP (UniProt Q8WWB7), the log2 fold change was inactive: -0.193.

As for GOLGA4 (UniProt Q13439), the log2 fold change was inactive: -0.137.

In the case of GHDC (UniProt Q8N2G8), the log2 fold change is inactive: 0.106.

As for GGH (UniProt Q92820), the log2 fold change is inactive: -0.03.

Regarding GNPAT (UniProt O15228), the log2 fold change was inactive: 0.004.

On to GPSM1 (UniProt Q86YR5), for which the log2 fold change was inactive: -0.031.

As to GLS isoform 3 (UniProt O94925), the log2 fold change was inactive: 0.041.

As for GLTP (UniProt Q9NZD2), the log2 fold change was inactive: 0.058.

With GPRASP2 (UniProt Q96D09), the log2 fold change is inactive: -0.046.

With GLCE (UniProt O94923), the log2 fold change is inactive: 0.023.

As to GPN2 (UniProt Q9H9Y4), the log2 fold change was inactive: 0.015.

On to GLRX (UniProt P35754), for which the log2 fold change is inactive: 0.003.

Turning to GPR89A (UniProt B7ZAQ6), the log2 fold change is inactive: 0.069.

As for GPATCH2L (UniProt Q9NWQ4), the log2 fold change was inactive: -0.092.

With GPA33 (UniProt Q99795), the log2 fold change is inactive: -0.015.

Consider GMPR (UniProt P36959), for which the log2 fold change was inactive: -0.004.

In the case of GORASP1 (UniProt Q9BQQ3), the log2 fold change was inactive: -0.087.

Take GPN3 isoform 2 (UniProt Q9UHW5): the log2 fold change is inactive: 0.019.

Turning to GNA12 (UniProt Q03113), the log2 fold change is inactive: 0.205.

In the case of GLB1 (UniProt P16278), the log2 fold change was inactive: -0.084.

Compound in a further assay: Cc1ccc(-n2nc(C(C)(C)C)cc2NC(=O)Nc2ccc(OCCN3CCOCC3)c3ccccc23)cc1 [doramapimod]
Described as above. The procedure, abridged:
as §1
Take GLMP (UniProt Q8WWB7): the log2 fold change was inactive: 0.168.

With GNPTAB (UniProt Q3T906), the log2 fold change is inactive: 0.001.

In the case of GOLIM4 (UniProt F8W785), the log2 fold change is inactive: 0.016.

For GOLGA4 (UniProt Q13439), the log2 fold change is inactive: 0.008.

On to GHDC (UniProt Q8N2G8), for which the log2 fold change is inactive: -0.037.

Turning to GGH (UniProt Q92820), the log2 fold change was inactive: -0.012.

As for GNPAT (UniProt O15228), the log2 fold change is inactive: 0.029.

In the case of GPSM1 (UniProt Q86YR5), the log2 fold change was inactive: -0.01.

On to GPNMB (UniProt Q14956), for which the log2 fold change is inactive: -0.094.

As to GLS isoform 3 (UniProt O94925), the log2 fold change was inactive: -0.019.

On to GLTP (UniProt Q9NZD2), for which the log2 fold change is inactive: -0.054.

For the target GPR68 (UniProt Q15743), the log2 fold change was inactive: 0.024.

Consider GLCE (UniProt O94923), for which the log2 fold change is inactive: 0.091.

As for GMEB1 isoform 2 (UniProt Q9Y692), the log2 fold change is inactive: 0.025.

In the case of GINM1 (UniProt Q9NU53), the log2 fold change was inactive: 0.

As for GK5 (UniProt Q6ZS86), the log2 fold change is inactive: -0.007.

In the case of GKAP1 (UniProt Q5VSY0), the log2 fold change was inactive: 0.012.

For GPN2 (UniProt Q9H9Y4), the log2 fold change is inactive: -0.005.

As to GLRX (UniProt P35754), the log2 fold change is inactive: 0.073.

In the case of GPR89A (UniProt B7ZAQ6), the log2 fold change was inactive: 0.018.

As for GOLGA8R (UniProt I6L899), the log2 fold change is inactive: 0.073.

GOSR1 (UniProt E9PCW1): the log2 fold change is inactive: -0.16.

Take GPATCH2L (UniProt Q9NWQ4): the log2 fold change was inactive: 0.131.

With GMPR (UniProt P36959), the log2 fold change was inactive: -0.011.

For the target GORASP1 (UniProt Q9BQQ3), the log2 fold change was inactive: 0.015.

With GPN3 isoform 2 (UniProt Q9UHW5), the log2 fold change was inactive: 0.001.

As for GPLD1 (UniProt P80108), the log2 fold change is inactive: 0.081.

As to GNAS isoform 3 (UniProt P63092), the log2 fold change was inactive: 0.

As for GNA12 (UniProt Q03113), the log2 fold change was inactive: 0.192.

Regarding GLB1 (UniProt P16278), the log2 fold change is inactive: 0.016.

For the target GPR180 (UniProt Q86V85), the log2 fold change is inactive: -0.007.

With GPATCH3 (UniProt Q96I76), the log2 fold change is inactive: -0.043.
